Data published in the supplement of paper PMC10849652.
The list shows a part of the results. Residues, ends and D or L forms follow the SMILES beside them. *: point of attachment. Cbz = O=C(OCc1ccccc1)*

Sequences of proteins named here, by UniProt entry; tags and fusion partners are left off. A change or cut given only in a name is not applied to a line headed by its entry.
UniProt Q9BSF8: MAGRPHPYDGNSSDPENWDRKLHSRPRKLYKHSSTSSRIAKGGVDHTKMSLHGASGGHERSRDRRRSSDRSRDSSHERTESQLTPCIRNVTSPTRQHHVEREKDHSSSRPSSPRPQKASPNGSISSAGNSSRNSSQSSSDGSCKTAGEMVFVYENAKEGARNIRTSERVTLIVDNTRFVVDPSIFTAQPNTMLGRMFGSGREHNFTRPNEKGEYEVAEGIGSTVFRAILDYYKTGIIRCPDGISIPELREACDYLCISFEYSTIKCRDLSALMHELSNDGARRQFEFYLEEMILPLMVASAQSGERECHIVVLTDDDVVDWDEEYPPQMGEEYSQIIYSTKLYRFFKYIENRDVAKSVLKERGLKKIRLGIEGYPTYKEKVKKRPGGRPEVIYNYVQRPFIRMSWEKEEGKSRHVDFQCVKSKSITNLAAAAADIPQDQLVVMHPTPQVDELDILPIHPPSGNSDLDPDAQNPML
UniProt Q6PH81: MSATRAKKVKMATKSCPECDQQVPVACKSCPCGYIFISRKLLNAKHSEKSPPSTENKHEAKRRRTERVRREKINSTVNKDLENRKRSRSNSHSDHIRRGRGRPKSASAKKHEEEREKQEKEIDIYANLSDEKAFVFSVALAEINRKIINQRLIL
UniProt P02748: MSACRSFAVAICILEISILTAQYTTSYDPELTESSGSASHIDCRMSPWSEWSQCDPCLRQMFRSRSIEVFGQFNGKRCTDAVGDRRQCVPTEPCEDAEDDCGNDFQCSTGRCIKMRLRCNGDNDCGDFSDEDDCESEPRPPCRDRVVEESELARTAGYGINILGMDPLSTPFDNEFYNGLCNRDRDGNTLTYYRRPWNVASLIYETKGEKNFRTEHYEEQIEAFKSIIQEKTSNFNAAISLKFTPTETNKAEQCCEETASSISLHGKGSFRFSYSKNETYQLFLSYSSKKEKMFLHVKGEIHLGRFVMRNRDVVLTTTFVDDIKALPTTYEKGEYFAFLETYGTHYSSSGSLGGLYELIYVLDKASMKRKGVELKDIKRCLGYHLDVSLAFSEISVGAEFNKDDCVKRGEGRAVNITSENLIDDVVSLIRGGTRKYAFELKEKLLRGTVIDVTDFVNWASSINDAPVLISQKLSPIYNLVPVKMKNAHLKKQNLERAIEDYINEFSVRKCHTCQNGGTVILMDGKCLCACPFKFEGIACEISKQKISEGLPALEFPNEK
UniProt Q96HA4: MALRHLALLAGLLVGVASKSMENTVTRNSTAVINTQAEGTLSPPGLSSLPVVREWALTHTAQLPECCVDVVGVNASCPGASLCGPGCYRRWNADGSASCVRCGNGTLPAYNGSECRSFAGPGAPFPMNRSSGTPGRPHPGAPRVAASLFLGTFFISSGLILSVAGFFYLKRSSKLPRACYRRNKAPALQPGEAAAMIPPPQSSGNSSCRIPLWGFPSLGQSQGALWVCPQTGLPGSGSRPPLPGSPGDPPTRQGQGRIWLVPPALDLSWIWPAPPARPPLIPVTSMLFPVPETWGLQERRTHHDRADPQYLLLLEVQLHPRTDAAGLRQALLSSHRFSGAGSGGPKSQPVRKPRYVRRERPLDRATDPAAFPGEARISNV
UniProt Q5U649: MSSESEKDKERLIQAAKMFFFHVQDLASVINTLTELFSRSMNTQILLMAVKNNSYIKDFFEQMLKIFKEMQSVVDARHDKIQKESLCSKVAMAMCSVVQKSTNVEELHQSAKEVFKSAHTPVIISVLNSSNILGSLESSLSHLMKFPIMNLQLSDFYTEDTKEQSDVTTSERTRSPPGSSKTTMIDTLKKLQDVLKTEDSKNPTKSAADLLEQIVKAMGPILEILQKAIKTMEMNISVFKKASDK
UniProt O75808: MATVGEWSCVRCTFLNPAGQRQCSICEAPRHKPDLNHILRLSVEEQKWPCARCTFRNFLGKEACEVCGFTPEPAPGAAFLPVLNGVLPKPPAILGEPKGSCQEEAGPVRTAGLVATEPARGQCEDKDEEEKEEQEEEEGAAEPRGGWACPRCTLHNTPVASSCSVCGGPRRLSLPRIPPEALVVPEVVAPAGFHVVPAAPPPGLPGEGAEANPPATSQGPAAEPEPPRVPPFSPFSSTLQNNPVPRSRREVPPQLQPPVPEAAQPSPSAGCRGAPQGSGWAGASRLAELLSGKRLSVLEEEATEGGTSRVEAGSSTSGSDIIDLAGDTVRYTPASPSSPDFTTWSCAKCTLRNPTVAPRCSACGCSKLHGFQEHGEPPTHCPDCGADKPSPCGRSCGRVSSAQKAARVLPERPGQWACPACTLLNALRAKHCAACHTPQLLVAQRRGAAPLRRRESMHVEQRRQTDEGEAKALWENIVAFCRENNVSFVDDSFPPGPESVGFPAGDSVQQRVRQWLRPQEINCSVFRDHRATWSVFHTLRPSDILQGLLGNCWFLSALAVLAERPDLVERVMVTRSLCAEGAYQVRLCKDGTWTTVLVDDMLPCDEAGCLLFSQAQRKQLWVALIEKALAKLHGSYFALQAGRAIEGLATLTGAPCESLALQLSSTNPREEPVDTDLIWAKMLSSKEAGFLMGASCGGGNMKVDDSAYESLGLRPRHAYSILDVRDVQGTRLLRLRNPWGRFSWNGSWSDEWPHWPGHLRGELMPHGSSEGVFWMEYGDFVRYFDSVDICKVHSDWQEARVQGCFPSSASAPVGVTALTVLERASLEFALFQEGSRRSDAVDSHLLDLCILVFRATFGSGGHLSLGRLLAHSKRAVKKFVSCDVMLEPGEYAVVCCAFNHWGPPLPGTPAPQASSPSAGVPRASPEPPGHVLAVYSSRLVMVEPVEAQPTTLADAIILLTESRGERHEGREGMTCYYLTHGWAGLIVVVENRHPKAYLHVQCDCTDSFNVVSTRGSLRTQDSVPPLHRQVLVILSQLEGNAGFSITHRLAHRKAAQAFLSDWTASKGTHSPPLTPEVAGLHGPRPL
UniProt Q9BWL3: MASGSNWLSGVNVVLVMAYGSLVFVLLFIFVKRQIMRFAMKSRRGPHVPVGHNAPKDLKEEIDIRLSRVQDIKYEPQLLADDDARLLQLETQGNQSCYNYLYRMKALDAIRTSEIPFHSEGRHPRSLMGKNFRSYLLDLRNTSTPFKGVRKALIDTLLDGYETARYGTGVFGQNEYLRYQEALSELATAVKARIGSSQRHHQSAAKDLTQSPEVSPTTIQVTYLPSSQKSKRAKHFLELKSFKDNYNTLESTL
UniProt Q9GZU0: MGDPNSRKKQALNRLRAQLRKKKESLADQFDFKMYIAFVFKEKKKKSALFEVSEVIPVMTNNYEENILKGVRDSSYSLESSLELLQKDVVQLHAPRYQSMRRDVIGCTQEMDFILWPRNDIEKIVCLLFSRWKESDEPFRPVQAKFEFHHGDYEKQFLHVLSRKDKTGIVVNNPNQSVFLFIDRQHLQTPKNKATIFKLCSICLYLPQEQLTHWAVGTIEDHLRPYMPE
UniProt Q96GV9: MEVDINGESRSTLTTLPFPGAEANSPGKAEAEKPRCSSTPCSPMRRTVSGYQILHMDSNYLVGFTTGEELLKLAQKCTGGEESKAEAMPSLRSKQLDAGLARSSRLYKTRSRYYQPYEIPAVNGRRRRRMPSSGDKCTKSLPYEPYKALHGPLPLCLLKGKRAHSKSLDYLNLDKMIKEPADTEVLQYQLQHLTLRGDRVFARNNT
UniProt Q96MH7: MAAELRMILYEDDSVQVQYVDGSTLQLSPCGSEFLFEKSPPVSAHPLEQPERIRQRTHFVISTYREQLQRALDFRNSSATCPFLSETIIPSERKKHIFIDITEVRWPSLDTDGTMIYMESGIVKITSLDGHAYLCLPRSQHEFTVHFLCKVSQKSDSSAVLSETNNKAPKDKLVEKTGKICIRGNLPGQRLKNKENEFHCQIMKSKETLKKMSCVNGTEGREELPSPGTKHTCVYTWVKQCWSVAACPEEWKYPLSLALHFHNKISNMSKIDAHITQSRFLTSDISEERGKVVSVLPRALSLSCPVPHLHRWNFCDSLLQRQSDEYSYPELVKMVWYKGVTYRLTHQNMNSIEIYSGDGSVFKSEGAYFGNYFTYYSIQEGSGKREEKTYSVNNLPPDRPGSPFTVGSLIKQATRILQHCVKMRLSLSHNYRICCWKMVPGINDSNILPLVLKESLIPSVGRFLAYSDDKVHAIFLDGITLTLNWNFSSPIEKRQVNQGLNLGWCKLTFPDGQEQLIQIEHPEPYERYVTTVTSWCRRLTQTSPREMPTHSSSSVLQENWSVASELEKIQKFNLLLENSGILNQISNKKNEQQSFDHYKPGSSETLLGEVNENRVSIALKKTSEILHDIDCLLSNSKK
UniProt P07451: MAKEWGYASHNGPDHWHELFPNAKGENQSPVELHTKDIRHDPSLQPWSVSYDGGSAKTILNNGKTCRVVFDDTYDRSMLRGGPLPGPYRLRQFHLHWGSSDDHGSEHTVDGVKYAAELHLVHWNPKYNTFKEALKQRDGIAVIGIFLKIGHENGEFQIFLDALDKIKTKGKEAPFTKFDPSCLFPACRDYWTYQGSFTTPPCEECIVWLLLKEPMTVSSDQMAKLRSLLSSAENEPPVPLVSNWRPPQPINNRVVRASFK
UniProt Q8N5S9: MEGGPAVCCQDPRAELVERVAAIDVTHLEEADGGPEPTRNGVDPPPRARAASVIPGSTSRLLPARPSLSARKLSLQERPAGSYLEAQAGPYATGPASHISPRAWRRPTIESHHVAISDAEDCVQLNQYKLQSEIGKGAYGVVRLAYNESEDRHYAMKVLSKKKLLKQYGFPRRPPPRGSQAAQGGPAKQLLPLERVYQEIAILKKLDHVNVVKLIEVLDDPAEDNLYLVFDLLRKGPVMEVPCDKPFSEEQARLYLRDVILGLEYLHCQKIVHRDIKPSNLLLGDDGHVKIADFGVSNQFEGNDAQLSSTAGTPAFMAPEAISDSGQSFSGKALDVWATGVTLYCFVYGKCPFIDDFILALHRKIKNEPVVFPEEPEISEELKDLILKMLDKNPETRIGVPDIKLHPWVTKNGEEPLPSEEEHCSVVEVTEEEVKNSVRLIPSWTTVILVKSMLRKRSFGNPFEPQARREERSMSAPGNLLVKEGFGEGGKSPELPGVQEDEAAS
UniProt Q6UX52: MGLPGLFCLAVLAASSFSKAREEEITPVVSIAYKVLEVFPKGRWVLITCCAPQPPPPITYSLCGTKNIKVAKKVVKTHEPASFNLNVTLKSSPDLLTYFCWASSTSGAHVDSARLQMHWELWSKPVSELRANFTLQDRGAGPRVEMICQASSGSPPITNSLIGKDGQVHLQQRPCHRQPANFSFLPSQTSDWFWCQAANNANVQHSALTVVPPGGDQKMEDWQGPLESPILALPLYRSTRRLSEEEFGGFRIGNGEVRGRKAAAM
UniProt Q3KRA6: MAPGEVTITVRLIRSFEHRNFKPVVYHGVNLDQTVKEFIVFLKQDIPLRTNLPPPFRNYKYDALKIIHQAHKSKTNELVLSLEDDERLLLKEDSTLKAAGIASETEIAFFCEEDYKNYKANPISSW
UniProt Q7Z6I8: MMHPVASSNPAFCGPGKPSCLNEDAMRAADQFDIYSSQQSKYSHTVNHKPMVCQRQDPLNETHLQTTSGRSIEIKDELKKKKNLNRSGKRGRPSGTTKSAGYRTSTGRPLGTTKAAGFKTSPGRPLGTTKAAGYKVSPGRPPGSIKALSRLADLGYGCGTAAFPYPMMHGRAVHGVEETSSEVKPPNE
UniProt Q96NL8: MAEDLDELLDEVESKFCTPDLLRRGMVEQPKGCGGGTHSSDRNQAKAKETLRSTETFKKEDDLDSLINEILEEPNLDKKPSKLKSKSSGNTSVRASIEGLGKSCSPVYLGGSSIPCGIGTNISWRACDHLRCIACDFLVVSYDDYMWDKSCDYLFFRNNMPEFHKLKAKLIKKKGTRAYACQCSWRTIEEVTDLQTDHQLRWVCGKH
UniProt Q9BRJ6: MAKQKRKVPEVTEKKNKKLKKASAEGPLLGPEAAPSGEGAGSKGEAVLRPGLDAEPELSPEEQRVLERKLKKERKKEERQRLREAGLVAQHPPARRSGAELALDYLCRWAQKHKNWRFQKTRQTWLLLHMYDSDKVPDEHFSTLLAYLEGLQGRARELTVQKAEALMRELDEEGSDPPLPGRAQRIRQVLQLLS
UniProt P27482, whole entry, looked up: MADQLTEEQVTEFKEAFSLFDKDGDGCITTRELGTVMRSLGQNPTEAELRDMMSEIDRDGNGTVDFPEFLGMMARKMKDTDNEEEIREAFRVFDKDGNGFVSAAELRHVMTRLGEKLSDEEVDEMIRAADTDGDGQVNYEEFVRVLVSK
UniProt Q9BUW7: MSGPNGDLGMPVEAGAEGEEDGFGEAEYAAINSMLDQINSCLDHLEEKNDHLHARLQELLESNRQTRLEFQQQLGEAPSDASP
UniProt Q14012: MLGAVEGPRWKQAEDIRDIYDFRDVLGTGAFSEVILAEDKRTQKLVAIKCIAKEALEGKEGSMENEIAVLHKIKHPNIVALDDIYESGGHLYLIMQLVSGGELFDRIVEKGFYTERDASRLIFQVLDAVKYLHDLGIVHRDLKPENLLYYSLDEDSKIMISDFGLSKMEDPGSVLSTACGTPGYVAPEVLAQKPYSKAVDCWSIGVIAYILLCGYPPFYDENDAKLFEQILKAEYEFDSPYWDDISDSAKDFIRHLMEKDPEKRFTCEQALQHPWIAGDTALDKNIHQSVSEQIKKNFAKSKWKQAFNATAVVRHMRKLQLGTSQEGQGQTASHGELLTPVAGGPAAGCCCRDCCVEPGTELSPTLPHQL

Tests used:
Assay in all cases: log2 fold change, soluble protein after heating vs DMSO (PISA); higher = thermal stabilisation; K562 cells, 10 uM, 30 min; active = over 0.2 and 3.5 SD of the protein, either way, in both replicates (recomputed)
[1] = compound: CC1=C(C(CC(=O)N1)C2=CC=C(C=C2)C(F)(F)F)C(=O)NC3=C(C=C4C(=C3)C=NN4)F
Procedure, shortened: (§1)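 Soluble protein was defined as the supernatant after 21,000xg for 90 min. It came from K562 cells at 2×10^6 cells/mL given 10 μM compound for 30 min, heated in aliquots for 3 min across 48°C-58°C, pooled, and extracted in PBS with 0.5% NP-40 at 4°C, and was quantified by TMTpro 16plex LC-MS/MS with equalised channel sums. Thermal stability against control samples, from duplicates, is reported as log2 fold change.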

[2] = compound: CCCc1cc(C)[nH]c(=O)c1CNC(=O)c1cc(-c2ccnc(N3CCN(C)CC3)c2)cc2c1cnn2C(C)C
Procedure, shortened: as §1

[3] = compound: CC(=O)c1cnc2ccc(-c3cc(Cl)c(O)c(Cl)c3)nc2c1N[C@H]1CC[C@H](CN(C)C)CC1
Procedure, shortened: as §1

[4] = compound: CC1=CC=C(C=C1)SC2=C3C=C(SC3=CN=C2)C(=O)N
Procedure, shortened: as §1

[5] = compound: CCCS(=O)(=O)Nc1ccc(F)c(C(=O)c2c[nH]c3ncc(Cl)cc23)c1F
Procedure, shortened: as §1

ibrutinib = compound: C=CC(=O)N1CCC[C@@H](n2nc(-c3ccc(Oc4ccccc4)cc3)c3c(N)ncnc32)C1 [ibrutinib]
Procedure, shortened: as §1

[6] = compound: CC(C)(O)CC(=O)NCCn1ccc2ncnc(Nc3ccc(Oc4cccc(C(F)(F)F)c4)c(Cl)c3)c21
Procedure, shortened: as §1

[7] = compound: CC1=C(C=C(C=C1)NC(=O)C2=CC(=CC=C2)C(C)(C)C#N)NC3=CC4=C(C=C3)N=CN(C4=O)C
Procedure, shortened: as §1

Nexturastat A = compound: CCCCN(Cc1ccc(C(=O)NO)cc1)C(=O)Nc1ccccc1 [Nexturastat A]
Procedure, shortened: as §1

vemurafenib = compound: CCCS(=O)(=O)Nc1ccc(F)c(C(=O)c2c[nH]c3ncc(-c4ccc(Cl)cc4)cc23)c1F [vemurafenib]
Procedure, shortened: as §1

barasertib = compound: CCN(CCCOc1ccc2c(Nc3cc(CC(=O)Nc4cccc(F)c4)[nH]n3)ncnc2c1)CCOP(=O)(O)O [barasertib]
Procedure, shortened: as §1

ralimetinib = compound: CC(C)(C)Cn1c(N)nc2ccc(-c3[nH]c(C(C)(C)C)nc3-c3ccc(F)cc3)nc21 [ralimetinib]
Procedure, shortened: as §1

[8] = compound: CC(C)C[C@@H](C=O)NC(=O)[C@H](CC(C)C)NC(=O)[C@H](CC(C)C)NC(=O)OCc1ccccc1
Procedure, shortened: as §1

[9] = compound: CC1=C(C2=C(C=C1)C(=O)C3=CC=CC=C3N2CCCN)C
Procedure, shortened: as §1

[10] = compound: CC1=C(C=C(C=C1)NC(=O)C2=CC(=CC=C2)N(C)C)NC(=O)C3=CC=C(C=C3)O
Procedure, shortened: as §1

[11] = compound: CC(C)C1=C2N=C(C=C(N2N=C1)NCC3=CC=CC=C3)NCCCCCCN
Procedure, shortened: as §1

givinostat = compound: CCN(CC)Cc1ccc2cc(COC(=O)Nc3ccc(C(=O)NO)cc3)ccc2c1 [givinostat]
Procedure, shortened: as §1

C3orf86 (UniProt P0DN24)
log2 fold change [1]: inactive: -0.255
log2 fold change [2]: inactive: -0.083

BTBD10 isoform 2 (UniProt Q9BSF8)
log2 fold change [3]: inactive: -0.006
log2 fold change [4]: inactive: -0.255
log2 fold change [5]: inactive: -0.337

C16orf87 (UniProt Q6PH81)
log2 fold change (ibrutinib): inactive: -0.035
log2 fold change [6]: inactive: 0.168
log2 fold change [1]: inactive: 0.056
log2 fold change [7]: inactive: -0.171
log2 fold change (Nexturastat A): inactive: -0.137
log2 fold change (vemurafenib): inactive: 0.016
log2 fold change [2]: inactive: -0.037
log2 fold change (barasertib): inactive: 0.104

C9 (UniProt P02748)
log2 fold change (ralimetinib): inactive: 0.052
log2 fold change [6]: inactive: 0.279
log2 fold change [8]: inactive: 0.026
log2 fold change [9]: inactive: -0.277
log2 fold change [10]: inactive: 0.228
log2 fold change (Nexturastat A): inactive: -0.007
log2 fold change [2]: inactive: -0.104

C1orf159 isoform 4 (UniProt Q96HA4)
log2 fold change (ibrutinib): inactive: -0.071
log2 fold change [7]: inactive: -0.202
log2 fold change (vemurafenib): inactive: 0.004
log2 fold change (barasertib): inactive: 0.069

C18orf21 (UniProt Q32NC0)
log2 fold change [2]: inactive: 0.132

C3AR1 (UniProt Q16581)
log2 fold change (ibrutinib): inactive: -0.476
log2 fold change [1]: inactive: 0.121
log2 fold change (barasertib): inactive: -0.328

C12orf60 (UniProt Q5U649)
log2 fold change (ibrutinib): inactive: -0.264
log2 fold change [6]: inactive: -0.511
log2 fold change [11]: inactive: -0.289
log2 fold change [9]: inactive: 0
log2 fold change [4]: inactive: 0.012
log2 fold change (Nexturastat A): inactive: 0.165
log2 fold change [5]: inactive: 0.124
log2 fold change (givinostat): inactive: 0.192
log2 fold change (barasertib): inactive: 0.009

CAPN15 (UniProt O75808)
log2 fold change (ibrutinib): inactive: -0.079
log2 fold change [6]: inactive: 0.058
log2 fold change [11]: inactive: -0.143
log2 fold change [7]: inactive: -0.049
log2 fold change [4]: inactive: -0.145
log2 fold change (Nexturastat A): inactive: -0.028
log2 fold change [5]: inactive: -0.082
log2 fold change (givinostat): inactive: 0.067
log2 fold change (barasertib): inactive: -0.436

C1orf43 (UniProt Q9BWL3)
log2 fold change [7]: inactive: -0.196

C6orf62 (UniProt Q9GZU0)
log2 fold change [6]: inactive: 0.146
log2 fold change [11]: inactive: 0.008
log2 fold change (Nexturastat A): inactive: 0.199
log2 fold change (givinostat): inactive: -0.027

CABIN1 (UniProt Q9Y6J0)
log2 fold change [11]: inactive: 0.23
log2 fold change [2]: inactive: -0.049
log2 fold change (givinostat): inactive: 0.064

C5orf30 (UniProt Q96GV9)
log2 fold change [3]: active: -0.917
log2 fold change [6]: inactive: 0.059
log2 fold change [9]: inactive: -0.284
log2 fold change [4]: inactive: -0.126
log2 fold change (Nexturastat A): inactive: -0.186
log2 fold change [5]: inactive: 0.103

C5orf34 (UniProt Q96MH7)
log2 fold change [2]: inactive: -0.075

CA3 (UniProt P07451)
log2 fold change (ralimetinib): inactive: -0.125
log2 fold change [6]: inactive: -0.055
log2 fold change [8]: inactive: 0.001
log2 fold change [7]: inactive: -0.189
log2 fold change [10]: inactive: 0.122
log2 fold change (Nexturastat A): inactive: 0.083

CA2 (UniProt P00918)
log2 fold change (ibrutinib): inactive: -0.151
log2 fold change [3]: inactive: -0.04
log2 fold change [11]: inactive: 0.175
log2 fold change [1]: inactive: -0.109
log2 fold change [9]: inactive: 0.027
log2 fold change [4]: inactive: -0.073
log2 fold change (vemurafenib): inactive: -0.028
log2 fold change [5]: inactive: -0.199
log2 fold change [2]: inactive: -0.028
log2 fold change (givinostat): inactive: 0.067
log2 fold change (barasertib): inactive: 0.051

CAMKK1 isoform 2 (UniProt Q8N5S9)
log2 fold change [4]: inactive: -0.031
log2 fold change [5]: inactive: 0.03

CAPNS1 (UniProt U3KPR7)
log2 fold change [3]: inactive: 0.118
log2 fold change [11]: inactive: 0.349
log2 fold change (givinostat): inactive: 0.082

C1orf112 (UniProt Q9NSG2)
log2 fold change [3]: inactive: 0.005
log2 fold change [9]: inactive: 0.04
log2 fold change [7]: inactive: -0.082
log2 fold change [4]: inactive: 0.016
log2 fold change (vemurafenib): inactive: 0.168
log2 fold change [5]: inactive: -0.013

BSN (UniProt Q9UPA5)
log2 fold change [3]: inactive: -0.031
log2 fold change (vemurafenib): inactive: 0.047

C17orf99 (UniProt Q6UX52)
log2 fold change [3]: inactive: -0.086
log2 fold change [6]: inactive: -0.001
log2 fold change [11]: inactive: 0.046
log2 fold change (Nexturastat A): inactive: 0.331
log2 fold change [2]: inactive: -0.064
log2 fold change (givinostat): inactive: 0.073

C2orf76 (UniProt Q3KRA6)
log2 fold change (ibrutinib): inactive: -0.045
log2 fold change [3]: inactive: 0.088
log2 fold change [11]: inactive: -0.114
log2 fold change [9]: inactive: 0.102
log2 fold change [7]: inactive: -0.064
log2 fold change (vemurafenib): inactive: 0.08
log2 fold change [2]: inactive: -0.112
log2 fold change (givinostat): inactive: -0.062
log2 fold change (barasertib): inactive: 0.055

CARD6 (UniProt Q9BX69)
log2 fold change (ralimetinib): inactive: 0.244
log2 fold change [8]: inactive: 0.243
log2 fold change [10]: inactive: 0.027

C5orf24 (UniProt Q7Z6I8)
log2 fold change [6]: inactive: 0.155
log2 fold change [1]: inactive: 0.174
log2 fold change [9]: inactive: -0.099
log2 fold change [4]: inactive: -0.114
log2 fold change (Nexturastat A): inactive: -0.09
log2 fold change (vemurafenib): inactive: -0.224
log2 fold change [5]: inactive: -0.041
log2 fold change [2]: inactive: 0.087

C8orf37 (UniProt Q96NL8)
log2 fold change [6]: inactive: 0.11
log2 fold change [11]: inactive: -0.021
log2 fold change [9]: inactive: 0.029
log2 fold change (Nexturastat A): inactive: -0.136
log2 fold change (givinostat): inactive: -0.052

C7orf50 (UniProt Q9BRJ6)
log2 fold change [3]: inactive: 0.077
log2 fold change (ralimetinib): inactive: 0.185
log2 fold change [8]: inactive: 0.1
log2 fold change [9]: inactive: -0.085
log2 fold change [10]: inactive: -0.031
log2 fold change (vemurafenib): inactive: 0.012

CALML3 (UniProt P27482)
log2 fold change [3]: inactive: -0.557
log2 fold change [6]: inactive: 0.206
log2 fold change [9]: inactive: 0.775
log2 fold change [4]: inactive: -0.139
log2 fold change (Nexturastat A): inactive: 0.022
log2 fold change [5]: inactive: -0.128
log2 fold change [2]: inactive: 0.121

C9orf16 (UniProt Q9BUW7)
log2 fold change [1]: inactive: 0.044
log2 fold change [2]: inactive: -0.007

CAD (UniProt H7BZB3)
log2 fold change [3]: inactive: -0.322

C4orf46 (UniProt Q504U0)
log2 fold change [1]: inactive: -0.08

BTBD1 (UniProt Q9H0C5)
log2 fold change (ralimetinib): inactive: -0.027
log2 fold change [8]: inactive: 0.225
log2 fold change [10]: inactive: -0.217

CALM1 (UniProt G3V361)
log2 fold change [11]: inactive: 0.083
log2 fold change [7]: inactive: -0.13
log2 fold change (givinostat): inactive: -0.084

CA1 (UniProt E5RIF9)
log2 fold change (ibrutinib): inactive: 0.161
log2 fold change [6]: inactive: -0.052
log2 fold change [9]: inactive: -0.02
log2 fold change (Nexturastat A): inactive: -0.413
log2 fold change (vemurafenib): inactive: -0.383
log2 fold change (barasertib): inactive: -0.004

CAMK1 (UniProt Q14012)
log2 fold change (ibrutinib): inactive: -0.016
log2 fold change (ralimetinib): inactive: 0.024
log2 fold change [8]: inactive: -0.123
log2 fold change [10]: inactive: 0.365
log2 fold change (barasertib): inactive: 0.008
